{
  "source": "patent US12625142B2",
  "about": "“Assay for measuring binding affinity for cardiolipin of biologically active compounds” (Latvian Institute of Organic Synthesis, priority 2020, dated 2026)",
  "assay": "competition binding assay for cardiolipin with fluorescent probe I and CL-DOPC liposomes (25:75 mol %)",
  "settings": "for relative binding affinity for CL within the studied set (in words): comparison of EC50 values; for EC50: 20 mM HEPES buffer, 2.5 μM CL, 5 μM I, means ± S.D. from 3 independent experiments",
  "data": [
    {"smiles": "CNC(C)[C@@H]1CC[C@@H](N)[C@@H](O[C@H]2[C@@H](O)[C@@H](O[C@H]3OC[C@](C)(O)[C@H](NC)[C@@H]3O)[C@H](N)C[C@@H]2N)O1.O=S(=O)(O)O", "note": "(stereo partly drawn) [Example 8, (2R,3S,4R,5R)-2-(((1S,2R,3R,4S,6R)-4,6-diamino (((2R,3R,6S)-3-amino-6-(1-(methylamino)ethyl)tetrahydro-2H-pyran-2-yl)oxy)-2-hydroxycyclohexyl)oxy)-5-methyl-4-(methylamino)tetrahydro-2H-pyran-3,5-diol sulfate]", "values": [
      {"measurement": "relative binding affinity for CL within the studied set (in words)", "setting": "20 mM HEPES, listed as Gentamicin", "result": "highest affinity for CL"},
      {"measurement": "relative binding affinity for CL within the studied set (in words)", "setting": "20 mM HEPES, listed as gentamicin", "result": "highest"},
      {"measurement": "times lower affinity toward CL than natural ligand cytochrome c", "setting": "pH 7.4, 20 mM HEPES, FIG. 2C", "result": "≈ 3 times"},
      {"measurement": "EC50", "setting": "pH = 6.8", "result": "1.01 ± 0.12", "unit": "µM"},
      {"measurement": "EC50", "setting": "pH = 7.4", "result": "0.98 ± 0.14", "unit": "µM"}
    ]}
  ]
}
